Binding data for nine molecules are collected here from article PMC10798966.

Protein sequences, listed by entry. Tags and fused reporters are not part of them. Residues count along the entry.
UniProt P31041, residues 20-218: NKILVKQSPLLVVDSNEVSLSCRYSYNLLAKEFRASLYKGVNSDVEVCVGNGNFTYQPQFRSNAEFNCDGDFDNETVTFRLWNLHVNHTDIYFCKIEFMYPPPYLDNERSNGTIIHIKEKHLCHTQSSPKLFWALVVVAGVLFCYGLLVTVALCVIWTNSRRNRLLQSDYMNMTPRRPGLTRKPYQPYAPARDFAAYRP
UniProt Q8BHD8: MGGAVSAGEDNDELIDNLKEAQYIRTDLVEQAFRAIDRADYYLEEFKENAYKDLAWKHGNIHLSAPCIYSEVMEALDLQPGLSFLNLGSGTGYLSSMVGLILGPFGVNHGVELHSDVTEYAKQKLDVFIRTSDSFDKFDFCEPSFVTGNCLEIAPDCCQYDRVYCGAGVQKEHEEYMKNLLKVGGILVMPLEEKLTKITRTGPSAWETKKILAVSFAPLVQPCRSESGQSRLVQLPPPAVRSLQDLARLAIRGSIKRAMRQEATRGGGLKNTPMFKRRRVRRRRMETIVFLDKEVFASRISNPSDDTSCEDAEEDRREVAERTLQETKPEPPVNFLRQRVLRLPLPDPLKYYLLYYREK
UniProt P09793, residues 36-223: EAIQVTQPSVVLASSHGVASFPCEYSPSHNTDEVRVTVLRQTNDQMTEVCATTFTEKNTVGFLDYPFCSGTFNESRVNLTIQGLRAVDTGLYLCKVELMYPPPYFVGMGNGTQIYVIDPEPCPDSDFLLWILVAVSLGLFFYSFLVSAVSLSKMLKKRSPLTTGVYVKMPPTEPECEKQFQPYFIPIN
UniProt Q9CQW9: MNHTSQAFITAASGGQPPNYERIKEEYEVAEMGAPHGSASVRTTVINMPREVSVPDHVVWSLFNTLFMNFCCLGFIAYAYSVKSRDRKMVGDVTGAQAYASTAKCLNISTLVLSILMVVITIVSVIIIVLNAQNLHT
UniProt P29595, residues 1-76: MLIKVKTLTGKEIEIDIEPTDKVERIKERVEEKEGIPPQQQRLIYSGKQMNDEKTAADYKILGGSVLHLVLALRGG

Results are given in words; binding and its absence hold for the method and conditions named. Binding seen in cells or lysates may run through a third protein. Here binding means that the protein was enriched with, or labelled near, the bait; the list need not be complete. No binding means not detected with the bait. For part of these data: Where a sequence is shown, tags or fusion partners need not be part of it.

First the molecules themselves.
B1: SKAP1 (protein, UniProt Q3UUV5 1-355)
chain: MQAVALPEEICWLLEDTEDFLAEGLQNENLSPGAQDQRAHILRGFQQIKSRYCWDFQPQGGDLGQDGSDDNLSGTHGPPLTSEASFWSDYQDEGIEDILRGAQELDSVIKQGYLEKKSKDHSFFGSEWQKRWCVISRGLFLYYANEKSKQPKGTFLIKGYSVRMAPHLRKDSKKESCFELISQDRRSYEFTASSPAEARDWVDQISFLLKDLSSLTIPFEEEEEEEEEEEKEEEEMYNDVDGFDSPRSGSQCRAMALPEPTEKEEDIYEVLPDDDDLEEDTCGAHRRRVDYADYYQGLWDCHGDQPDELSFQRGDLIRILSKEYNMYGWWVGELNSVIGIVPKDYLTTAFEMEGI
B2: IL2 receptor β subunit (IL2RB) (receptor, UniProt P16297 27-539)
chain: AVKNCSHLECFYNSRANVSCMWSHEEALNVTTCHVHAKSNLRHWNKTCELTLVRQASWACNLILGSFPESQSLTSVDLLDINVVCWEEKGWRRVKTCDFHPFDNLRLVAPHSLQVLHIDTQRCNISWKVSQVSHYIEPYLEFEARRRLLGHSWEDASVLSLKQRQQWLFLEMLIPSTSYEVQVRVKAQRNNTGTWSPWSQPLTFRTRPADPMKEILPMSWLRYLLLVLGCFSGFFSCVYILVKCRYLGPWLKTVLKCHIPDPSEFFSQLSSQHGGDLQKWLSSPVPLSFFSPSGPAPEISPLEVLDGDSKAVQLLLLQKDSAPLPSPSGHSQASCFTNQGYFFFHLPNALEIESCQVYFTYDPCVEEEVEEDGSRLPEGSPHPPLLPLAGEQDDYCAFPPRDDLLLFSPSLSTPNTAYGGSRAPEERSPLSLHEGLPSLASRDLMGLQRPLERMPEGDGEGLSANSSGEQASVPEGNLHGQDQDRGQGPILTLNTDAYLSLQELQAQDSVHLI
B3: ASB6, Q91ZU1 1-418 (protein)
chain: MPFLHGFRRIIFEYQPLVDAILGALGIQDLERQEPLDDSASSEESRILVLTELLEQKAHSPFYQEGVSNALLKMAELGLTRAAAVLLQSGANLNFEDPVTYYTALHIAVLRNQPDMVELLVRHGADINRRDRIHESSPLDLASEEPERLPCLQRLLDLGADVNAADKNGKTALLHALASSDGVQIHNTENIRLLLEGGADVKATTKDGDTVFTCIIFLLGETVCGDKEEAPMINRFCFQVTQLLLAHGADPSECPAHESLTHICLKSFKLHFPLLCFLLESGAAYNCSLHGASCWSGFNLVFERLCSHPGCAEDDSHIELLHKAETVLDLMVTSSQRLQLPENLNIHPVGSLAGKIQALHASLRQLESYPPPLKHLCRVSIRLCLRPWPVDTKVKALPLPDRLKWYLLSAHSDTQDTC
B4: Cish, Q62225 1-257 (protein)
chain: MVLCVQGSCPLLAVEQIGRRPLWAQSLELPGPAMQPLPTGAFPEEVTEETPVQAENEPKVLDPEGDLLCIAKTFSYLRESGWYWGSITASEARQHLQKMPEGTFLVRDSTHPSYLFTLSVKTTRGPTNVRIEYADSSFRLDSNCLSRPRILAFPDVVSLVQHYVASCAADTRSDSPDPAPTPALPMSKQDAPSDSVLPIPVATAVHLKLVQPFVRRSSARSLQHLCRLVINRLVADVDCLPLPRRMADYLRQYPFQL

For the first assay, the target named is CUL5 with a C terminal HA-tag (CUL5-HA) (mouse) (UniProt Q9D5V5). The assay is described as follows: affinity purification with mass spectrometry; anti-HA IP of CUL5-HA from mouse primary CD8+ T cells stimulated with anti-CD3 plus anti-CD28 for 12 h, 10 µM MG-132 for the last 8 h; Protein G dynabeads; DIA-MS; compared with cells transduced with the empty vector; triplicate.
Conditions: not given
With “CD28 (from UniProt P31041 20-218) (receptor)”, the binding result is listed as “binds”.

In the case of PCMTD2 (from UniProt Q8BHD8 1-359), the binding entry is “binds”.

Turning to “CTLA4 (from UniProt P09793 36-223) (receptor)”, the binding result is “no binding”.

On to IFITM3 (from UniProt Q9CQW9 1-137), for which the binding entry is on record as “binds”.

As to NEDD8 (from UniProt P29595 1-76), the binding result is “binds”.

In the case of B1, the binding entry is on record as “binds”.

Regarding B2, the binding result is given as “binds”.

A further assay addresses T1, CUL5 with a C terminal HA-tag (CUL5-HA) (mouse), Q9D5V5.
T1 chain: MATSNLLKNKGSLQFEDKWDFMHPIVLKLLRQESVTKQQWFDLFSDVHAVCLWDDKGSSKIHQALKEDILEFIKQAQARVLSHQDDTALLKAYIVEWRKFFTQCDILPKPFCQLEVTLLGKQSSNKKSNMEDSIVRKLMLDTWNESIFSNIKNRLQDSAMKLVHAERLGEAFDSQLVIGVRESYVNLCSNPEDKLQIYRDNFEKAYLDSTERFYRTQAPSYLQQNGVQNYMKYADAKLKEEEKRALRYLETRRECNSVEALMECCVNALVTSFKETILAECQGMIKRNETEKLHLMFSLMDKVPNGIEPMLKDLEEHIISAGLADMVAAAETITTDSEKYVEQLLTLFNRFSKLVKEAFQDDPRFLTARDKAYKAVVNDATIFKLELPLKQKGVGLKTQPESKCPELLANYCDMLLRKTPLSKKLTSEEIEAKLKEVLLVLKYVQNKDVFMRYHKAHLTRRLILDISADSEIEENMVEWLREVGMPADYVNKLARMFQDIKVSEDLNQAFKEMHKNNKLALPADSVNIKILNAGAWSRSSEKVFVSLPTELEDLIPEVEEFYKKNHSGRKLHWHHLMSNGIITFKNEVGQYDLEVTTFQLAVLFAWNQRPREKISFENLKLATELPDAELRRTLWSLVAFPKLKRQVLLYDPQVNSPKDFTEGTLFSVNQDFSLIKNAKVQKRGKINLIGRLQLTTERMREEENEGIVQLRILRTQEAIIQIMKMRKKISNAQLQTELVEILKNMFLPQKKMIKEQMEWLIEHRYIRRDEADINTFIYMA
The description is as above. The settings on record: remark: other sources report otherwise.
As to B3, the binding entry is “no binding”.

In the case of B4, the binding entry was “no binding”.
